Assay results published in patent publication US9102678B2, “Compounds and methods for inhibiting mitotic progression” (Millennium Pharmaceuticals, Inc., priority 2004, dated 2015).
Some entries share one result that the patent states for a list of compounds.

Amino acid sequences for entries named in this document (tags omitted). A change or cut given only in a name is not applied to a line headed by its entry.
UniProt P97477: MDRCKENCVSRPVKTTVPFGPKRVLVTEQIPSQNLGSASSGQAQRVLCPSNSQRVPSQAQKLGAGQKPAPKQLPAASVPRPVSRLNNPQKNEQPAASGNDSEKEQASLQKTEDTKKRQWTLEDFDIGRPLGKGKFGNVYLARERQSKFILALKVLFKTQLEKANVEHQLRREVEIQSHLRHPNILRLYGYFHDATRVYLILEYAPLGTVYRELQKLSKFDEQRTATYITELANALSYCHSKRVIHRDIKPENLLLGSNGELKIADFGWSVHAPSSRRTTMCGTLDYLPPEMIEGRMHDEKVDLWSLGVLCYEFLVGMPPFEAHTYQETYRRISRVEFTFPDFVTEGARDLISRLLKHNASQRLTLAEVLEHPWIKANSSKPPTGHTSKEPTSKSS

Molecular target: T1, recombinant murine Aurora A enzyme (Mus musculus, UniProt P97477)
T1 construct: hexahistidine (His6) (N); made in house; host or cells: insect cells, baculovirus (Bac-to-Bac, Invitrogen)
Experiment: Aurora A DELFIA Kinase Assay
Format: biochemical
Conditions: 250 μM ATP, threshold less than or equal to 1.0 μM

SMILES	IC50 [nM]
CNC1CN(C(=O)c2ccc(Nc3ncc4c(n3)-c3ccc(Cl)cc3C(c3c(F)cccc3Cl)=NC4)cc2)C1 [Compound I-351, 9-chloro-7-(2-chloro-6-fluorophenyl)-N-(4-{[3-(methylamino)azetidin-1-yl]carbonyl}phenyl)-5H-pyrimido[5,4-d][2]benzazepin-2-amine]	≤ 1000
NC1CN(C(=O)c2ccc(Nc3ncc4c(n3)-c3ccc(Cl)cc3C(c3c(F)cccc3F)=NC4)cc2)C1 [Compound I-278, N-{4-[(3-aminoazetidin-1-yl)carbonyl]phenyl}-9-chloro-7-(2,6-difluorophenyl)-5H-pyrimido[5,4-d][2]benzazepin-2-amine]	≤ 1000
CNC1CCN(C(=O)c2ccc(Nc3ncc4c(n3)-c3ccc(Cl)cc3C(c3ccccc3F)=NC4)cc2)C1 (stereo not drawn) [Compound I-102, {4-[9-Chloro-7-(2-fluoro-phenyl)-5H-benzo[c]pyrimido[4,5-e]azepin-2-ylamino]-phenyl}-(3-methylamino-pyrrolidin-1-yl)-methanone]	≤ 1000
NC1CCN(C(=O)c2ccc(Nc3ncc4c(n3)-c3ccc(Cl)cc3C(c3c(F)cccc3F)=NC4)cc2Cl)C1 (stereo not drawn) [Compound I-318]	≤ 1000
COc1ccc(C2=NCc3cnc(Nc4ccc(C(=O)O)cc4)nc3-c3ccc(Cl)cc32)c(OC)c1 [Compound I-101, 4-[9-Chloro-7-(2,4-dimethoxy-phenyl)-5H-benzo[c]pyrimido-[4,5-e]azepin-2-ylamino]-benzoic acid]	≤ 1000
NCCCc1cccc(Nc2ncc3c(n2)-c2ccc(Cl)cc2C(c2c(F)cccc2F)=NC3)c1 [Compound I-373, N-[3-(3-aminopropyl)phenyl]-9-chloro-7-(2,6-difluorophenyl)-5H-pyrimido[5,4-d][2]benzazepin-2-amine]	≤ 1000
CC1CN(C(=O)c2cccc(Nc3ncc4c(n3)-c3ccc(Cl)cc3C(c3c(F)cccc3F)=NC4)c2)CC(C)N1 (stereo not drawn) [Compound I-222, 9-chloro-7-(2,6-difluorophenyl)-N-{3-[(3,5-dimethylpiperazin-1-yl)carbonyl]phenyl}-5H-pyrimido[5,4-d][2]benzazepin-2-amine]	≤ 1000
COc1cccc(F)c1C1=NCc2cnc(Nc3ccc(C(=O)N4CCC(N(C)C)CC4)cc3)nc2-c2ccc(Cl)cc21 [Compound I-186, {4-[9-Chloro-7-(2-fluoro-6-methoxy-phenyl)-5H-benzo[c]pyrimido-[4,5-e]azepin-2-ylamino]-phenyl}-(4-dimethylamino-piperidin-1-yl)-methanone]	≤ 1000
CN(C)CCCNC(=O)c1ccc(Nc2ncc3c(n2)-c2ccc(Cl)cc2C(c2ccccc2F)=NC3)cc1 [Compound I-6, 4-[9-Chloro-7-(2-fluoro-phenyl)-5H-benzo[c]pyrimido[4,5-e]azepin-2-ylamino]-N-(3-dimethylamino-propyl)-benzamide]	≤ 1000
O=C(NCCc1cccnc1)c1ccc(Nc2ncc3c(n2)-c2ccc(Cl)cc2C(c2ccccc2F)=NC3)cc1 [Compound I-151, 4-[9-Chloro-7-(2-fluoro-phenyl)-5H-benzo[c]pyrimido[4,5-e]azepin-2-ylamino]-N-(2-pyridin-3-yl-ethyl)-benzamide]	≤ 1000
Cc1ccccc1C1=NCc2cnc(Nc3ccc(C(=O)NCCN4CCOCC4)cc3)nc2-c2ccc(Cl)cc21 [Compound I-31, 4-(9-Chloro-7-o-tolyl-5H-benzo[c]pyrimido[4,5-e]azepin-2-ylamino)-N-(2-morpholin-4-yl-ethyl)-benzamide]	≤ 1000
O=C(NCCc1c[nH]cn1)c1ccc(Nc2ncc3c(n2)-c2ccc(Cl)cc2C(c2ccccc2F)=NC3)cc1 [Compound I-147, 4-[9-Chloro-7-(2-fluoro-phenyl)-5H-benzo[c]pyrimido[4,5-e]azepin-2-ylamino]-N-[2-(1H-imidazol-4-yl)-ethyl]-benzamide]	≤ 1000
CNC1CCCN(C(=O)c2ccc(Nc3ncc4c(n3)-c3ccc(Cl)cc3C(c3c(F)cccc3OC)=NC4)cc2)C1 (stereo not drawn) [Compound I-263, 9-chloro-7-(2-fluoro-6-methoxyphenyl)-N-(4-{[3-(methylamino)piperidin-1-yl]carbonyl}phenyl)-5H-pyrimido[5,4-d][2]benzazepin-2-amine]	≤ 1000
CC1CN(C(=O)c2ccc(Nc3ncc4c(n3)-c3ccc(Cl)cc3C(c3ccccc3F)=NC4)cc2Cl)CCN1 (stereo not drawn) [Compound I-214, 9-chloro-N-{3-chloro-4-[(3-methylpiperazin-1-yl)carbonyl]phenyl}-7-(2-fluorophenyl)-5H-pyrimido[5,4-d][2]benzazepin-2-amine]	≤ 1000
COc1ccccc1C1=NCc2cnc(Nc3ccc(C(=O)NCCCN4CCOCC4)cc3)nc2-c2ccc(Cl)cc21 [Compound I-32, 4-[9-Chloro-7-(2-methoxy-phenyl)-5H-benzo[c]pyrimido[4,5-e]azepin-2-ylamino]-N-(3-morpholin-4-yl-propyl)-benzamide]	≤ 1000
CN(C)C1CN(C(=O)c2cccc(Nc3ncc4c(n3)-c3ccc(Cl)cc3C(c3c(F)cccc3F)=NC4)c2)C1 [Compound I-204, 9-chloro-7-(2,6-difluorophenyl)-N-(3-{[3-(dimethylamino)azetidin-1-yl]carbonyl}phenyl)-5H-pyrimido[5,4-d][2]benzazepin-2-amine]	≤ 1000
NCCCNC(=O)c1ccc(Nc2ncc3c(n2)-c2ccc(Cl)cc2C(c2ccccc2F)=NC3)cc1 [Compound I-129, N-(3-Amino-propyl)-4-[9-chloro-7-(2-fluoro-phenyl)-5H-benzo[c]pyrimido[4,5-e]azepin-2-ylamino]-benzamide]	≤ 1000
CC1CN(C(=O)c2ccc(Nc3ncc4c(n3)-c3ccc(Cl)cc3C(c3ccccc3F)=NC4)cc2)CC(C)N1 (stereo not drawn) [Compound I-111, {4-[9-Chloro-7-(2-fluoro-phenyl)-5H-benzo[c]pyrimido[4,5-e]azepin-2-ylamino]-phenyl}-(3,5-dimethyl-piperazin-1-yl)-methanone]	≤ 1000
O=C(c1ccc(Nc2ncc3c(n2)-c2ccc(Cl)cc2C(c2ccccc2F)=NC3)cc1)N1CCN(CCCN2CCCCC2)CC1 [Compound I-181, {4-[9-Chloro-7-(2-fluoro-phenyl)-5H-benzo[c]pyrimido[4,5-e]azepin-2-ylamino]-phenyl}-[4-(3-piperidin-1-yl-propyl)-piperazin-1-yl]-methanone]	≤ 1000
CN1CCCC(CN2CCN(C(=O)c3ccc(Nc4ncc5c(n4)-c4ccc(Cl)cc4C(c4ccccc4F)=NC5)cc3)CC2)C1 (stereo not drawn) [Compound I-211, 9-chloro-7-(2-fluorophenyl)-N-[4-({4-[(1-methylpiperidin-3-yl)methyl]piperazin-1-yl}carbonyl)phenyl]-5H-pyrimido[5,4-d][2]benzazepin-2-amine]	≤ 1000
CN1CCN(CCCNC(=O)Cc2cccc(Nc3ncc4c(n3)-c3ccc(Cl)cc3C(c3ccccc3F)=NC4)c2)CC1 [Compound I-25, 2-{3-[9-Chloro-7-(2-fluoro-phenyl)-5H-benzo[c]pyrimido[4,5-e]azepin-2-ylamino]-phenyl}-N-[3-(4-methyl-piperazin-1-yl)-propyl]-acetamide]	≤ 1000
CN(C)C1CCN(C(=O)c2ccc(Nc3ncc4c(n3)-c3ccc(Cl)cc3C(c3c(F)cccc3F)=NC4)cc2)CC1 [Compound I-183, {4-[9-Chloro-7-(2,6-difluoro-phenyl)-5H-benzo[c]pyrimido[4,5-e]azepin-2-ylamino]-phenyl}-(4-dimethylamino-piperidin-1-yl)-methanone]	≤ 1000
Cc1ccc2c(c1)C(c1ccccc1F)=NCc1cnc(Nc3ccc(C(=O)N4CCN(C)CC4)cc3)nc1-2 [Compound I-14, {4-[7-(2-Fluoro-phenyl)-9-methyl-5H-benzo[c]pyrimido[4,5-e]azepin-2-ylamino]-phenyl}-(4-methyl-piperazin-1-yl)-methanone]	≤ 1000
COc1cccc(F)c1C1=NCc2cnc(Nc3cccc(C(=O)N4CC(C)NC(C)C4)c3)nc2-c2ccc(Cl)cc21 (stereo not drawn) [Compound I-228, 9-chloro-N-{3-[(3,5-dimethylpiperazin-1-yl)carbonyl]phenyl}-7-(2-fluoro-6-methoxyphenyl)-5H-pyrimido[5,4-d][2]benzazepin-2-amine]	≤ 1000
CC1CN(C(=O)c2ccc(Nc3ncc4c(n3)-c3ccc(Cl)cc3C(c3ccc(F)cc3F)=NC4)cc2)CC(C)N1 (stereo not drawn) [Compound I-321, 9-chloro-7-(2,4-difluorophenyl)-N-{4-[(3,5-dimethylpiperazin-1-yl)carbonyl]phenyl}-5H-pyrimido[5,4-d][2]benzazepin-2-amine]	≤ 1000
CNC1CCN(C(=O)c2ccc(Nc3ncc4c(n3)-c3ccc(Cl)cc3C(c3ccccc3OC)=NC4)cc2)C1 (stereo not drawn) [Compound I-332, 9-chloro-7-(2-methoxyphenyl)-N-(4-{[3-(methylamino)pyrrolidin-1-yl]carbonyl}phenyl)-5H-pyrimido[5,4-d][2]benzazepin-2-amine]	≤ 1000
CNC1CCN(C(=O)c2ccc(Nc3ncc4c(n3)-c3ccc(Cl)cc3C(c3c(F)cccc3Cl)=NC4)cc2)CC1 [Compound I-325, 9-chloro-7-(2-chloro-6-fluorophenyl)-N-(4-{[4-(methylamino)piperidin-1-yl]carbonyl}phenyl)-5H-pyrimido[5,4-d][2]benzazepin-2-amine]	≤ 1000
CN(C)C1CCN(C(=O)c2ccc(Nc3ncc4c(n3)-c3ccc(Cl)cc3C(c3ccccc3F)=NC4)cc2)C1 (stereo not drawn) [Compound I-100, {4-[9-Chloro-7-(2-fluoro-phenyl)-5H-benzo[c]pyrimido[4,5-e]azepin-2-ylamino]-phenyl}-(3-dimethylamino-pyrrolidin-1-yl)-methanone]	≤ 1000
O=C(c1ccc(Nc2ncc3c(n2)-c2ccc(Cl)cc2C(c2ccccc2F)=NC3)cc1)N1CCNCC1 [Compound I-8, {4-[9-Chloro-7-(2-fluoro-phenyl)-5H-benzo[c]pyrimido[4,5-e]azepin-2-ylamino]-phenyl}-piperazin-1-yl-methanone]	≤ 1000
CN(C)CCCN(C)C(=O)c1ccc(Nc2ncc3c(n2)-c2ccc(Cl)cc2C(c2c(F)cccc2F)=NC3)cc1 [Compound I-185, 4-[9-Chloro-7-(2,6-difluoro-phenyl)-5H-benzo[c]pyrimido[4,5-e]azepin-2-ylamino]-N-(3-dimethylamino-propyl)-N-methyl-benzamide]	≤ 1000
